# Results published in PubChem BioAssay (Tox21).
# Several values for one entry are separate records, joined by “and”; a condition that tells them apart may be missing. Equal values may be shown once. This list was built around the results that the source calls inconclusive (neither active nor inactive); the mix of calls is not that of the screen. Potencies beside an inconclusive call are fits to weak or partial responses and may not hold up. Activity calls are given as the source filed them. The call rests on the fitted dose curve; in most records, active means well fitted cell-killing curve with a large enough effect in the repeat runs; inconclusive means weak or mixed curves, or effect the other way; inactive means flat fitted curve, though single readings scatter.
# Assay: cAMP Responsive Elements (CRE) small molecule agonists, cell-based qHTS assay: qHTS cell viability counter screen (AID 2060914); further: nearly all actives have a fitted effect of over 50% in size
# Conditions: CRE-bla HEK293T viability, CellTiter-Glo luminescence, 5 h; series mostly up to 92.4 µM
# How it was run: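 Luminescence read-out (CellTiter-Glo, 30 min RT) of ATP-based viability in CRE-bla HEK 293T cells, run in the same wells as the β-lactamase reporter assay after 3 h compound treatment at 37 °C.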
# On the % scale 0 is the no-effect control and ±100 the full control effect; potency means the concentration at half of the fitted maximal effect.
SMILES,Potency,"activity change, negative = cytotoxicity"
COC(=O)c1ccc([N+](=O)[O-])cc1,inactive,–
COC(=O)C(c1ccccc1Cl)N1CCc2sccc2C1 (stereo not given),"inconclusive: 0.298 µM [cytotoxic, single point]",–
Cc1oc(=O)oc1CN1CCN(c2cc3c(cc2F)c(=O)c(C(=O)O)c2n3C(C)S2)CC1 (stereo not given),"inconclusive: 33.5 µM [cytotoxic, single point]",–
O=C(N/N=C/c1ccccc1O)c1ccncc1,inactive,–
O=C(c1ccco1)N1CCNCC1,"inconclusive: 0.237 µM [cytotoxic, single point]",–
CCN(CC)c1ccc2c(C)cc(=O)oc2c1,"inconclusive: 15.5 µM [cytotoxic, single point]",–
CN1[C@@H]2CC[C@H]1CC(OC(=O)c1c[nH]c3ccccc13)C2 (stereo not given in full),"inconclusive: 0.596 µM [cytotoxic, single point]",–
O=S1(=O)OC(c2ccc(O)cc2)(c2ccc(O)cc2)c2ccccc21,"inconclusive: 77 µM [cytotoxic, single point]",–
C=CCOCC(CC)(CO)COCC=C,"inconclusive: 9.69 µM [cytotoxic, single point]",–
CCCCCCCCCCCCCc1ccccc1,inactive,–
Cc1[nH]cnc1-c1ccc(Cl)cc1,"inconclusive: 7.5 µM [cytotoxic, single point]",–
CC(=O)CCc1ccc(OC(C)=O)cc1,"inconclusive: 77 µM [cytotoxic, single point]",–
CN1[C@@H]2CC[C@@H]1CC(OC(=O)C(CO)c1ccccc1)C2 (stereo not given in full),"inconclusive: 0.585 µM [cytotoxic, partial curve, poor fit]",–
C/C=C/c1ccc(OC)cc1,"inconclusive: 10 µM [cytotoxic, single point] and inconclusive: 11.9 µM [cytotoxic, partial curve, poor fit]",–
CN(C)CCOC(c1ccccc1)c1ccccc1 (tested in a mixture with another compound),"inconclusive: 77.5 µM [rising, partial curve, poor fit]",–
C=CCCCCCC,"inconclusive: 66.1 µM [cytotoxic, partial curve, poor fit]",–
C=CC1CC2C=CC1C2 (stereo not given),inactive,–
CCN(CC)CCOc1ccc(C(O)(Cc2ccc(Cl)cc2)c2ccc(C)cc2)cc1 (stereo not given),"inconclusive: 33.5 µM [cytotoxic, single point]",–
CCN(Cc1cccc(S(=O)(=O)O)c1)c1ccc(C(=C2C=CC(=[N+](CC)Cc3cccc(S(=O)(=O)O)c3)C=C2)c2ccc(O)cc2S(=O)(=O)[O-])cc1,"inconclusive: 41.6 µM [cytotoxic, single point]",–
NCCCCCC(=O)O,"inconclusive: 0.119 µM [cytotoxic, single point]",–

# One compound at a time, as listed above. Order of values: Potency | activity change, negative = cytotoxicity
# C=CCOCC(CC)(CO)COCC=C reads inconclusive: 9.69 µM [cytotoxic, single point] | –
# Cc1oc(=O)oc1CN1CCN(c2cc3c(cc2F)c(=O)c(C(=O)O)c2n3C(C)S2)CC1 (stereo not given) reads inconclusive: 33.5 µM [cytotoxic, single point] | –
# NCCCCCC(=O)O reads inconclusive: 0.119 µM [cytotoxic, single point] | –

# Continued.

SMILES,Potency,"activity change, negative = cytotoxicity"
Nc1ccc2c(c1)CN1C(=O)c3ccccc3C1=N2,"inconclusive: 9.2 µM [cytotoxic, partial curve]",–
Cc1cc2nc3ccc(=[N+](C)C)cc-3sc2cc1N,"inconclusive: 0.237 µM [cytotoxic, single point]",–
CN(C)CCCOc1nn(Cc2ccccc2)c2ccccc12,"inconclusive: 11.9 µM [cytotoxic, partial curve, poor fit]",–
C=C(C)C(=O)OCCC(C)OC(=O)C(=C)C (stereo not given),"inconclusive: 0.968 µM [cytotoxic, single point]",–
Cc1c(C)c2c(c(C)c1OC(=O)CCC(=O)OCCO)CC[C@@](C)(CCC[C@H](C)CCC[C@H](C)CCCC(C)C)O2,active: 26.6 µM,–
COc1ccc(OC)c(NC(=O)CC(C)=O)c1,"inconclusive: 9.69 µM [cytotoxic, single point]",–
CN(C)CCCN(C)C,–,inactive: -2.69% [at 8.39 µM]
Cc1nn(C)c(Oc2ccccc2)c1/C=N/OCc1ccc(C(=O)OC(C)(C)C)cc1,inactive,–
COc1ccccc1OCC(O)CN1CCN(CC(=O)Nc2c(C)cccc2C)CC1 (stereo not given),inactive,–
CC(=O)N(CC(O)CN(C(C)=O)c1c(I)c(C(=O)NCC(O)CO)c(I)c(C(=O)NCC(O)CO)c1I)c1c(I)c(C(=O)NCC(O)CO)c(I)c(C(=O)NCC(O)CO)c1I (stereo not given),inactive,–
CC(=O)O[C@]1(C(C)=O)CC[C@H]2[C@@H]3C[C@H](C)C4=CC(=O)CC[C@]4(C)[C@H]3CC[C@@]21C,"inconclusive: 2.43 µM [cytotoxic, single point]",–
COc1ccc(Nc2ccc(OC)cc2)cc1,"inconclusive: 69.8 µM [rising, single point]",–
CN=C(NC#N)NCCSCc1nc[nH]c1C,inactive,–
CC(C(=O)O)c1cccc(Oc2ccccc2)c1 (stereo not given),"inconclusive: 1.19 µM [cytotoxic, single point]",–
CCC(CO)(CO)CO,"inconclusive: 71.4 µM [rising, single point]",–
c1cc2ccc3ccc4ccc5cccc6c(c1)c2c3c4c56,–,inactive: -0.0627% [at 3.27 µM]
CCOc1cc(N)c(Cl)cc1C(=O)NCC1CN(Cc2ccc(F)cc2)CCO1 (stereo not given),"inconclusive: 7.5 µM [cytotoxic, single point]",–
CC=C(Cl)Cl,"inconclusive: 67.3 µM [cytotoxic, single point]",–
CCc1ccc(O)cc1,"inconclusive: 27.6 µM [rising, partial curve, poor fit]",–
Nc1ncnc2c1ncn2[C@H]1CC[C@@H](CO)O1,"inconclusive: 4.95 µM [rising, full curve, poor fit]",–
